Results taken from the supplement of paper PMC10849652.
This is one part of the list.

By UniProt entry, the sequences of proteins in these tests, tags left out. Where a name states a change or a piece, a line headed by the entry shows the natural chain unless it says otherwise.
UniProt P51991: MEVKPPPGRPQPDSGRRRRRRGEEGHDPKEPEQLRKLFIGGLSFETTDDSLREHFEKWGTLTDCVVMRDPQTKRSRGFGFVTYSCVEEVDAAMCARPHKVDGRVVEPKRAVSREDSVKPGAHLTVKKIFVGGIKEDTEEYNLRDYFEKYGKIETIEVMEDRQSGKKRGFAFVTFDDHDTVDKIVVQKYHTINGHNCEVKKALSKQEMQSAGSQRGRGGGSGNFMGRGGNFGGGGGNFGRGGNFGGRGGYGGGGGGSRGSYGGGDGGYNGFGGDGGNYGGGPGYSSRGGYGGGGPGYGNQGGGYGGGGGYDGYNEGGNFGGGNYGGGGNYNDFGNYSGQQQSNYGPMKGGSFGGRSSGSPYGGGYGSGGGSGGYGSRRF
UniProt P48723: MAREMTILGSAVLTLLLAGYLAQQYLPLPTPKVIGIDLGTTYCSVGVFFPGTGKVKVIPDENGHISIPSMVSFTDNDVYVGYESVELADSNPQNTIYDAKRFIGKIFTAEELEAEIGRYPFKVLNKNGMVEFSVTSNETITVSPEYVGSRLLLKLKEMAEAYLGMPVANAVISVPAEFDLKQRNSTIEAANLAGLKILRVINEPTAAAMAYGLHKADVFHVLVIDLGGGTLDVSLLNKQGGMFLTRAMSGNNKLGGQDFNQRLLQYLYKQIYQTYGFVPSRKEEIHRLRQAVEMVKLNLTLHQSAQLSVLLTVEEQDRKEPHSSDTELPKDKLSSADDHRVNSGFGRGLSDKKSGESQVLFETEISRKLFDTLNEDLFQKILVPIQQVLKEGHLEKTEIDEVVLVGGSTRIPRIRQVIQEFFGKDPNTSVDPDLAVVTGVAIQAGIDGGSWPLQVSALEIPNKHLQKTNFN
UniProt Q9BX68: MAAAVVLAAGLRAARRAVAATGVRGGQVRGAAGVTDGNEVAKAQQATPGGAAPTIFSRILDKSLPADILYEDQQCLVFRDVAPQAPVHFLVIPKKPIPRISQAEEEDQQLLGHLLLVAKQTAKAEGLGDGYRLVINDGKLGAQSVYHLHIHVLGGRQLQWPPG
UniProt O94992, whole entry, looked up: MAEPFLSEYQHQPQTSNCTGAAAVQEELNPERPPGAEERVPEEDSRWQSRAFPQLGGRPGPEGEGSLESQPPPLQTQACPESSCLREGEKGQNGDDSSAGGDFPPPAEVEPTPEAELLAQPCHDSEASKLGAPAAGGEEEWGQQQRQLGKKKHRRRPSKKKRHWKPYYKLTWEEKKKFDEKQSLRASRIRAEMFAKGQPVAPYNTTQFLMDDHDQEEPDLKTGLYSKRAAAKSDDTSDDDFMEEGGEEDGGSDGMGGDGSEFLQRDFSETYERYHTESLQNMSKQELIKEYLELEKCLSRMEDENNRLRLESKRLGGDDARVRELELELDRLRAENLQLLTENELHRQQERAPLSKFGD
UniProt Q58FF6, whole entry, looked up: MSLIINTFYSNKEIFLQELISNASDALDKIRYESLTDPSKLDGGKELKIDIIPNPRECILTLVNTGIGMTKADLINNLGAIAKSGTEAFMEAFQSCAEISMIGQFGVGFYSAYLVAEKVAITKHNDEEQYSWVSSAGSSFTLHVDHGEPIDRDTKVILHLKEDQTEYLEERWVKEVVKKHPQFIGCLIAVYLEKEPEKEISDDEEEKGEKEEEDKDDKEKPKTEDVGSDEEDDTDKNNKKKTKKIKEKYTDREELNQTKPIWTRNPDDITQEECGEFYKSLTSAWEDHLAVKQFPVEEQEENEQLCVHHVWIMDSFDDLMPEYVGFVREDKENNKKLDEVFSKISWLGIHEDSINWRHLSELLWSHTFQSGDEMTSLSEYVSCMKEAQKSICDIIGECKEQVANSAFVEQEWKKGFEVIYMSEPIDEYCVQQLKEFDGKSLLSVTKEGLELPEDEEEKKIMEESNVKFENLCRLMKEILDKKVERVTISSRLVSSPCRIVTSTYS
UniProt Q03014: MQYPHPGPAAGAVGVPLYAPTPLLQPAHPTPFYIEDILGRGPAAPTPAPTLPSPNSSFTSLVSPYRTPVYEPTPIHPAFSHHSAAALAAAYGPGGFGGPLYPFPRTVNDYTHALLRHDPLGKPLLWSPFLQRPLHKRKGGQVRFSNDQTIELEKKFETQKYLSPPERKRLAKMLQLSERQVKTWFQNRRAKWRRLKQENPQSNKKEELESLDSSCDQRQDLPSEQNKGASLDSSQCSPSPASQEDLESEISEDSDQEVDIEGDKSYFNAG
UniProt Q92506: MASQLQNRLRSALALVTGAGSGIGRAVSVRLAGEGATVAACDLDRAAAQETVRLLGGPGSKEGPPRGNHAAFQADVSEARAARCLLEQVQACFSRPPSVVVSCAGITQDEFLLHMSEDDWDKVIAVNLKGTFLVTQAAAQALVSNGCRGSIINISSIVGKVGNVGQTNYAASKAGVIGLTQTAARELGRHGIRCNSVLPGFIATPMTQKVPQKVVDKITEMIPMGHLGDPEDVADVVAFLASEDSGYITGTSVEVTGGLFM
UniProt Q53T59: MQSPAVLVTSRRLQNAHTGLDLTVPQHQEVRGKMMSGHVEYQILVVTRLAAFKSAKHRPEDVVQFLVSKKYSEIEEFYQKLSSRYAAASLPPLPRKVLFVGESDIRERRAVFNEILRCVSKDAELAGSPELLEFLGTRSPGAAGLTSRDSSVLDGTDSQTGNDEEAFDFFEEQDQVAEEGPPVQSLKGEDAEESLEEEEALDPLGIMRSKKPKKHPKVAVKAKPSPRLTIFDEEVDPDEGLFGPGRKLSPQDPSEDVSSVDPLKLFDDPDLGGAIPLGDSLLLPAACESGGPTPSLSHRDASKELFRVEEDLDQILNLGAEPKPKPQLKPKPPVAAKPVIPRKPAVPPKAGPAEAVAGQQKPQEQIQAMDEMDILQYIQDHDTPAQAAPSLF
UniProt Q9BW71: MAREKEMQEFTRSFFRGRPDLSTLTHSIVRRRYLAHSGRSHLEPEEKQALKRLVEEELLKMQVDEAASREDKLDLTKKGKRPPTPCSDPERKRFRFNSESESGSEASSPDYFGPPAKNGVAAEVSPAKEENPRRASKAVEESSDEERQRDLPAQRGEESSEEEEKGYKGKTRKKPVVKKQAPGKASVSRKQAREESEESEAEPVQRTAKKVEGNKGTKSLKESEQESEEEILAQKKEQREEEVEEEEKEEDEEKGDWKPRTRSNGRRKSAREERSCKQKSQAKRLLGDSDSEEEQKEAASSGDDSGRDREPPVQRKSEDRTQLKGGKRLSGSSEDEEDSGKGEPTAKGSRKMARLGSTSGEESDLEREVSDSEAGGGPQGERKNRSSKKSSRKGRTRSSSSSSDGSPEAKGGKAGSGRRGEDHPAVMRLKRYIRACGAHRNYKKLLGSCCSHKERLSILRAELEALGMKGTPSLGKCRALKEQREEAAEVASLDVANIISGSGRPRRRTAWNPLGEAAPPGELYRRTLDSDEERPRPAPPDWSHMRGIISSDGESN
UniProt Q58FG1, whole entry, looked up: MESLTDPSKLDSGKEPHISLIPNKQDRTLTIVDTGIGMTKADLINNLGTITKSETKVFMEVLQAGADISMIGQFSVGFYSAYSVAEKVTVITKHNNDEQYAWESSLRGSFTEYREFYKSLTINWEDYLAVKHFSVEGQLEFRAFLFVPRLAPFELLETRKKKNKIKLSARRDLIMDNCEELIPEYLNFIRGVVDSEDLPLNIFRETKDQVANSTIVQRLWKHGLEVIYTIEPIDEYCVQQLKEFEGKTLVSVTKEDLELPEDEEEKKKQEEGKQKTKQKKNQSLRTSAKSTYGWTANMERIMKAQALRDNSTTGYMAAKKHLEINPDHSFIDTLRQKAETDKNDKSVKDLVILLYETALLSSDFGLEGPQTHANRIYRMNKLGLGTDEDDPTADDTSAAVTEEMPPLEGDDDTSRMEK
UniProt P54652, whole entry, looked up: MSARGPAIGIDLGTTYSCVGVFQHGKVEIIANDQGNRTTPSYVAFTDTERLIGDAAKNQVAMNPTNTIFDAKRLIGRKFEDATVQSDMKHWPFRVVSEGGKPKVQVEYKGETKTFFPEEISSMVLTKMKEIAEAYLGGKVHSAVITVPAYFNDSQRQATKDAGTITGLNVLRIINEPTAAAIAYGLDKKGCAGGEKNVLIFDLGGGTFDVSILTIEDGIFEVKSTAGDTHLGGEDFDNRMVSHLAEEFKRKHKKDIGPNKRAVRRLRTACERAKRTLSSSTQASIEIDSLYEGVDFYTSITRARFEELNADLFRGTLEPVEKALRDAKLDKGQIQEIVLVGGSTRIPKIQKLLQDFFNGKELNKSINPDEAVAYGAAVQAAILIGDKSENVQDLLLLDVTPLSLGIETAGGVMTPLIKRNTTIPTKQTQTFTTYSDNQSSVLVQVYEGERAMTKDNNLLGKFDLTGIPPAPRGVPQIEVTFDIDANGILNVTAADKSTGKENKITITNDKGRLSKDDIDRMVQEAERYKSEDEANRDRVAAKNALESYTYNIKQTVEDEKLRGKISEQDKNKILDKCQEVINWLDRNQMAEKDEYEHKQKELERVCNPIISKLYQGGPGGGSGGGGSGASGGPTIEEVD
UniProt P31942: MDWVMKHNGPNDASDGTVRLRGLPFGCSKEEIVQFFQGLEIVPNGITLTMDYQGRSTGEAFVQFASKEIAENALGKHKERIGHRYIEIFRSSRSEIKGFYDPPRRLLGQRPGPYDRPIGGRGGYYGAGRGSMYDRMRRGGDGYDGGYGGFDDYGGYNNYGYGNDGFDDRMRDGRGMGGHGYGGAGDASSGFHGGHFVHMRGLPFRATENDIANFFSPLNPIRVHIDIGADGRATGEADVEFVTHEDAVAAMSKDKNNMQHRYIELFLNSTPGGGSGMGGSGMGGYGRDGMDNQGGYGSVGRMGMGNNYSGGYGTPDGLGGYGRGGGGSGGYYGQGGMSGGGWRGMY
UniProt Q6DN03, whole entry, looked up: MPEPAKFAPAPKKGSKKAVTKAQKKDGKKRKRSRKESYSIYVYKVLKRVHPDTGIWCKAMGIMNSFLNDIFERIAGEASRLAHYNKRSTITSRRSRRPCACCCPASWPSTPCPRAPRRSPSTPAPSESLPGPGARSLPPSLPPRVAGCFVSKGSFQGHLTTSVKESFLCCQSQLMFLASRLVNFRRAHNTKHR

How the values were obtained:
Assay in all cases: log2 fold change, soluble protein after heating vs DMSO (PISA); higher = thermal stabilisation; K562 lysate, 10 uM; active = over 0.2 and 3.5 SD of the protein, either way, in both replicates (recomputed)
[1] = compound: CS(=O)(=O)CCNCc1ccc(-c2ccc3ncnc(Nc4ccc(OCc5cccc(F)c5)c(Cl)c4)c3c2)o1 [lapatinib]
Summary of the method: (§1)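 To prepare the extract, K562 pellets were dounce-homogenised in PBS pH 7.4 with 1 mM MgCl2, giving crude material at 1 mg/mL protein. This was treated with 10 μM compound for 30 min, then heated in aliquots for 3 min over 48°C-58°C before pooling and addition of NP-40 to 0.5% at 4°C. Centrifugation at 21,000xg for 90 min left soluble protein in the supernatant, which TMTpro 16plex LC-MS/MS quantified with equalised channel sums. Results are log-two fold changes in thermal stability compared with solvent controls, from duplicates.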

[2] = compound: CS(=O)(=O)N1CCN(Cc2cc3nc(-c4cccc5[nH]ncc45)nc(N4CCOCC4)c3s2)CC1 [pictilisib]
Summary of the method: as §1

[3] = compound: C[C@@H](Oc1cc(-c2cnn(C3CCNCC3)c2)cnc1N)c1c(Cl)ccc(F)c1Cl [crizotinib]
Summary of the method: as §1

[4] = compound: C[C@H](C1=CC=C(C=C1)C(=O)NC2=C3C=CNC3=NC=C2)N
Summary of the method: as §1

[5] = compound: C[C@H](Nc1ncnc2nc[nH]c12)c1cc2cccc(Cl)c2c(=O)n1-c1ccccc1 [duvelisib]
Summary of the method: as §1

[6] = compound: Cc1cc(Nc2cc(CN3CCOCC3)c3nc(C)c(Cc4ccc(Cl)cc4F)n3n2)n[nH]1 [gandotinib]
Summary of the method: as §1

[7] = compound: Cc1cc(Nc2cc(N3CCN(C)CC3)nc(Sc3ccc(NC(=O)C4CC4)cc3)n2)n[nH]1 [tozasertib]
Summary of the method: as §1

[8] = compound: Cc1ccc(-n2nc(C(C)(C)C)cc2NC(=O)Nc2ccc(OCCN3CCOCC3)c3ccccc23)cc1 [doramapimod]
Summary of the method: as §1

[9] = compound: Cc1ccc(NC(=O)c2ccc(CN3CC[C@H](N(C)C)C3)c(C(F)(F)F)c2)cc1Nc1nccc(-c2cncnc2)n1 [bafetinib]
Summary of the method: as §1

[10] = compound: Cc1cccc(CC(=O)N2CCc3c2ccc(-c2cn(C)c4ncnc(N)c24)c3F)n1
Summary of the method: as §1

[11] = compound: Cc1cn(-c2cc(NC(=O)c3ccc(C)c(Nc4nccc(-c5cccnc5)n4)c3)cc(C(F)(F)F)c2)cn1 [nilotinib]
Summary of the method: as §1

[12] = compound: Cc1nc(Nc2n[nH]c3c2CN(C(=O)N[C@H](CN(C)C)c2ccccc2)C3(C)C)c2sccc2n1
Summary of the method: as §1

[13] = compound: Cc1nc(Nc2ncc(C(=O)Nc3c(C)cccc3Cl)s2)cc(N2CCN(CCO)CC2)n1 [dasatinib]
Summary of the method: as §1

[14] = compound: Cc1ncc(-c2ccnc(Nc3ccc(S(C)(=O)=O)cc3)n2)n1C(C)C
Summary of the method: as §1

[15] = compound: Cn1cc(-c2ccc3c(c2)CCN3C(=O)Cc2cccc(C(F)(F)F)c2)c2c(N)ncnc21
Summary of the method: as §1

[16] = compound: Cn1cc(CNCC2CCN(c3ncc(C(=O)NO)cn3)CC2)c2ccccc21 [quisinostat]
Summary of the method: as §1

[17] = compound: Cn1cncc1[C@@](N)(c1ccc(Cl)cc1)c1ccc2c(c1)c(-c1cccc(Cl)c1)cc(=O)n2C [tipifarnib]
Summary of the method: as §1

[18] = compound: NC(=O)Nc1cc(-c2cccc(F)c2)sc1C(=O)N[C@H]1CCCNC1
Summary of the method: as §1

[19] = compound: NC(=O)c1cnc(N[C@@H]2CCCC[C@@H]2N)nc1Nc1cccc(-n2nccn2)c1
Summary of the method: as §1

[20] = compound: NC1(c2ccc(-c3nc4ccn5c(=O)[nH]nc5c4cc3-c3ccccc3)cc2)CCC1
Summary of the method: as §1

Measured: log2 fold change

HNRNPA3 (UniProt P51991)
inactive: [1] 0 | [2] -0.035 | [3] 0.075 | [4] 0.006 | [5] -0.012 | [6] -0.024 | [7] 0.017 | [8] -0.015 | [9] 0.02 | [10] -0.039 | [11] 0.033 | [12] -0.011 | [13] 0.033 | [14] 0.036 | [15] 0.069 | [16] 0.11 | [17] 0.092 | [18] -0.03 | [19] -0.021 | [20] 0.062

HSPA13 (UniProt P48723)
inactive: [1] -0.013 | [2] -0.007 | [3] 0.007 | [4] 0.016 | [5] -0.031 | [6] -0.049 | [7] 0 | [8] 0.024 | [9] -0.032 | [10] 0 | [11] 0.025 | [12] -0.038 | [13] -0.001 | [14] -0.045 | [15] 0.065 | [16] -0.027 | [17] -0.02 | [18] 0.051 | [19] 0.016 | [20] 0.036

HECTD1 (UniProt Q9ULT8)
inactive: [1] 0.014 | [2] -0.039 | [3] -0.031 | [4] 0.005 | [5] 0.015 | [6] -0.029 | [7] 0.013 | [8] 0.031 | [9] -0.047 | [10] 0.074 | [11] -0.008 | [12] 0.032 | [13] -0.021 | [14] -0.006 | [15] 0.032 | [16] -0.041 | [17] -0.004 | [18] 0.01 | [19] 0.03 | [20] 0.007

HINT2 (UniProt Q9BX68)
inactive: [1] 0.045 | [2] -0.015 | [3] -0.031 | [4] 0.254 | [5] 0.106 | [6] 0.032 | [7] 0.051 | [8] 0.017 | [9] -0.094 | [10] -0.047 | [11] 0.115 | [12] 0.026 | [13] -0.02 | [14] 0.076 | [15] 0.034 | [16] 0.063 | [17] 0.035 | [18] -0.034 | [19] -0.02 | [20] 0.091

HEXIM1 (UniProt O94992)
inactive: [1] -0.006 | [2] 0.015 | [3] 0.009 | [4] -0.023 | [5] 0.001 | [6] 0.02 | [7] -0.008 | [8] 0.05 | [9] 0.004 | [10] -0.017 | [11] -0.093 | [12] 0.057 | [13] 0.018 | [14] 0.01 | [15] -0.036 | [16] -0.001 | [17] 0.019 | [18] -0.025 | [19] 0.005 | [20] -0.023

HSP90AB4P (UniProt Q58FF6)
inactive: [1] -0.106 | [2] -0.322 | [3] -0.039 | [4] -0.382 | [5] 0.006 | [6] -0.05 | [7] 0.006 | [8] 0.112 | [9] -0.531 | [10] 0.32 | [11] -0.1 | [12] -0.059 | [13] -0.098 | [14] 0.119 | [15] 0.072 | [16] -0.153 | [17] 0.116 | [18] 0.038 | [19] 0.034 | [20] -0.063

HHEX (UniProt Q03014)
inactive: [1] -0.083 | [2] 0.053 | [3] 0.111 | [4] 0.031 | [5] -0.06 | [6] 0.065 | [7] -0.223 | [8] 0.137 | [9] -0.132 | [10] -0.035 | [11] -0.129 | [12] 0.006 | [13] -0.071 | [14] -0.018 | [15] -0.043 | [16] -0.047 | [17] -0.172 | [18] 0.051 | [19] 0.034 | [20] 0.04

HSD17B8 (UniProt Q92506)
inactive: [1] -0.017 | [2] -0.006 | [3] 0.004 | [4] -0.084 | [5] 0.006 | [6] 0.071 | [7] 0.016 | [8] -0.007 | [9] -0.014 | [10] -0.017 | [11] 0.017 | [12] -0.004 | [13] -0.005 | [14] 0.029 | [15] -0.003 | [16] -0.009 | [17] 0.034 | [18] 0.034 | [19] -0.005 | [20] -0.008

HS1BP3 (UniProt Q53T59)
active: [4] -0.253
inactive: [1] 0.024 | [2] -0.019 | [3] 0.006 | [5] -0.047 | [6] 0.068 | [7] 0.021 | [8] -0.019 | [9] -0.048 | [10] 0.074 | [11] 0.021 | [12] -0.016 | [13] 0.023 | [14] -0.007 | [15] 0 | [16] -0.006 | [17] 0.042 | [18] -0.019 | [19] 0.024 | [20] -0.014

HIRIP3 (UniProt Q9BW71)
inactive: [1] 0.001 | [2] 0.032 | [3] -0.027 | [4] 0.04 | [5] -0.044 | [6] 0.029 | [7] 0.016 | [8] 0.039 | [9] 0.033 | [10] -0.044 | [11] -0.018 | [12] -0.014 | [13] 0.009 | [14] -0.028 | [15] -0.022 | [16] -0.018 | [17] 0.014 | [18] -0.01 | [19] -0.024 | [20] -0.004

HSP90AA4P (UniProt Q58FG1)
active: [4] -0.464
inactive: [1] -0.035 | [2] -0.129 | [3] -0.032 | [5] 0.011 | [6] 0.042 | [7] 0.08 | [8] -0.034 | [9] -0.235 | [10] 0.128 | [11] -0.157 | [12] 0.052 | [13] 0.029 | [14] -0.062 | [15] 0.038 | [16] -0.145 | [17] 0.01 | [18] -0.065 | [19] -0.047 | [20] -0.024

HSPA2 (UniProt P54652)
inactive: [1] 0.046 | [2] 0.012 | [3] -0.018 | [4] -0.11 | [5] -0.017 | [6] 0.241 | [7] 0.034 | [8] 0.081 | [9] 0.094 | [10] 0.356 | [11] -0.016 | [12] 0.013 | [13] -0.079 | [14] 0.144 | [15] -0.078 | [16] 0.026 | [17] -0.093 | [18] 0.05 | [19] -0.044 | [20] 0.054

HMGN4 (UniProt O00479)
active: [4] 1.19
inactive: [1] 0.038 | [2] -0.044 | [3] 0.047 | [5] -0.074 | [6] -0.421 | [7] 0.078 | [8] -0.163 | [9] 0.6 | [10] -0.551 | [11] 0.049 | [12] -0.072 | [13] 0.192 | [14] 0.009 | [15] 0.003 | [16] 0.171 | [17] 0.001 | [18] -0.019 | [19] 0.012 | [20] -0.028

HNRNPH3 (UniProt P31942)
inactive: [1] -0.007 | [2] 0.04 | [3] -0.141 | [4] -0.038 | [5] -0.045 | [6] -0.016 | [7] -0.002 | [8] 0.035 | [9] -0.074 | [10] 0.022 | [11] -0.218 | [12] 0.052 | [13] -0.024 | [14] 0.072 | [15] 0.043 | [16] -0.154 | [17] -0.003 | [18] 0.067 | [19] 0.019 | [20] -0.002

Taken from above (two entries):
HMGN4 (UniProt O00479)
active: [4] 1.19
inactive: [1] 0.038 | [2] -0.044 | [3] 0.047 | [5] -0.074 | [6] -0.421 | [7] 0.078 | [8] -0.163 | [9] 0.6 | [10] -0.551 | [11] 0.049 | [12] -0.072 | [13] 0.192 | [14] 0.009 | [15] 0.003 | [16] 0.171 | [17] 0.001 | [18] -0.019 | [19] 0.012 | [20] -0.028

HNRNPH3 (UniProt P31942)
inactive: [1] -0.007 | [2] 0.04 | [3] -0.141 | [4] -0.038 | [5] -0.045 | [6] -0.016 | [7] -0.002 | [8] 0.035 | [9] -0.074 | [10] 0.022 | [11] -0.218 | [12] 0.052 | [13] -0.024 | [14] 0.072 | [15] 0.043 | [16] -0.154 | [17] -0.003 | [18] 0.067 | [19] 0.019 | [20] -0.002

The list goes on.

HIST2H2BC (UniProt Q6DN03)
inactive: [1] -0.024 | [2] 0.02 | [3] -0.024 | [4] 0.183 | [5] -0.083 | [6] -0.054 | [7] 0.019 | [8] 0.007 | [9] 0.018 | [10] -0.019 | [11] 0.003 | [12] -0.021 | [13] 0.051 | [14] -0.01 | [15] -0.079 | [16] -0.014 | [17] 0.037 | [18] 0.016 | [19] -0.01 | [20] 0.058

HIST2H2AA3 (UniProt Q6FI13)
inactive: [1] 0.001 | [2] -0.016 | [3] 0.049 | [5] -0.044 | [6] -0.143 | [7] 0.022 | [8] -0.088 | [9] 0.159 | [10] -0.171 | [11] 0.135 | [12] -0.098 | [13] 0.081 | [14] 0.035 | [15] -0.041 | [16] 0.064 | [17] 0.058 | [18] 0.076 | [19] 0.01 | [20] 0.048
active: [4] 0.555
